Values from PubChem BioAssay AID1259308 (NCATS, 2017)
Assay: 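Knock-downs that increase output of a recombinant reporter protein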 (primary screen). Cells: human HEK293 embryonic kidney cells stably expressing firefly luciferase (HEK-CMV-Luc2-Hygro). Reagents: single siRNA against human genes, 0.8 pmol siRNA per well. Timing: 72 h. Detection: 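Luciferase light (ONE-Glo) measured on one replicate plate set and viability (CellTiter-Glo) on the other, scaled to a negative control siRNA, with robust z-scores and luciferase per cell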. Reading the numbers: total luciferase, z-score and total luciferase, % of control: higher = more reporter protein produced. Hit rule: 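An siRNA counts as active if its total luciferase robust z-score exceeds 3; genes with two or more such siRNAs out of three were retested with fresh siRNAs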. Meaning of the calls: active = raised luciferase; inactive = no rise.
Here is an unselected part of about 59,000 reagents. In the full data, about 1,510 (2.6%) got an active call. 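Calls use total luciferase alone and ignore viability, so some active siRNAs may act by altering cell number.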 Reagents against one gene are numbered here. Further read-outs or replicates are left out here.

What did the screen give for ADM (adrenomedullin) #1?
total luciferase, z-score: -0.135; total luciferase, % of control: 79.2; call: inactive

For ADM (adrenomedullin) #2, what was measured?
total luciferase, z-score: -0.621; total luciferase, % of control: 69.5; call: inactive

Which result is listed for ADM (adrenomedullin) #3?
total luciferase, z-score: 0.851; total luciferase, % of control: 98.8; call: inactive

How did the screen score OPN1SW (opsin 1, short wave sensitive) #1?
total luciferase, z-score: 1.24; total luciferase, % of control: 107; call: inactive

With OPN1SW (opsin 1, short wave sensitive) #2, what does the deposit list?
total luciferase, z-score: 6.53; total luciferase, % of control: 212; call: active

For OPN1SW (opsin 1, short wave sensitive) #3, how do the results read?
total luciferase, z-score: -0.625; total luciferase, % of control: 69.5; call: inactive

For HECTD1 (HECT domain E3 ubiquitin protein ligase 1) #1, what does the deposit list?
total luciferase, z-score: -0.598; total luciferase, % of control: 70; call: inactive

With HECTD1 (HECT domain E3 ubiquitin protein ligase 1) #2, what does the deposit list?
total luciferase, z-score: -0.991; total luciferase, % of control: 62.2; call: inactive

What is on record for HECTD1 (HECT domain E3 ubiquitin protein ligase 1) #3?
total luciferase, z-score: -0.323; total luciferase, % of control: 75.5; call: inactive

For FGF8 (fibroblast growth factor 8) #1, how do the results read?
total luciferase, z-score: 3.24; total luciferase, % of control: 146; call: active

With FGF8 (fibroblast growth factor 8) #2, how do the results read?
total luciferase, z-score: 0.732; total luciferase, % of control: 96.4; call: inactive

With FGF8 (fibroblast growth factor 8) #3, what does the deposit list?
total luciferase, z-score: -0.276; total luciferase, % of control: 76.4; call: inactive

For ADNP (activity dependent neuroprotector homeobox) #1, what was measured?
total luciferase, z-score: 0.743; total luciferase, % of control: 96.7; call: inactive

For ADNP (activity dependent neuroprotector homeobox) #2, what was measured?
total luciferase, z-score: 0.501; total luciferase, % of control: 91.8; call: inactive

For ADNP (activity dependent neuroprotector homeobox) #3, how do the results read?
total luciferase, z-score: -0.577; total luciferase, % of control: 70.4; call: inactive

Which result is listed for TARBP1 (tRNA guanosine 2 -O-methyltransferase TARBP1) #1?
total luciferase, z-score: 0.186; total luciferase, % of control: 85.6; call: inactive

For TARBP1 (tRNA guanosine 2 -O-methyltransferase TARBP1) #2, what was measured?
total luciferase, z-score: -0.738; total luciferase, % of control: 67.2; call: inactive

How did the screen score TARBP1 (tRNA guanosine 2 -O-methyltransferase TARBP1) #3?
total luciferase, z-score: -1.04; total luciferase, % of control: 61.2; call: inactive

How did the screen score UAP1 (UDP-N-acetylglucosamine pyrophosphorylase 1) #1?
total luciferase, z-score: 0.967; total luciferase, % of control: 101; call: inactive

For UAP1 (UDP-N-acetylglucosamine pyrophosphorylase 1) #2, what does the deposit list?
total luciferase, z-score: 0.0139; total luciferase, % of control: 82.2; call: inactive

What is on record for UAP1 (UDP-N-acetylglucosamine pyrophosphorylase 1) #3?
total luciferase, z-score: 0.144; total luciferase, % of control: 84.8; call: inactive

What did the screen give for TATDN2 (TatD DNase domain containing 2) #1?
total luciferase, z-score: -0.767; total luciferase, % of control: 66.6; call: inactive

Which result is listed for TATDN2 (TatD DNase domain containing 2) #2?
total luciferase, z-score: -0.137; total luciferase, % of control: 79.2; call: inactive

For TATDN2 (TatD DNase domain containing 2) #3, how do the results read?
total luciferase, z-score: 0.752; total luciferase, % of control: 96.8; call: inactive

What is on record for TYW3 (tRNA-yW synthesizing protein 3 homolog) #1?
total luciferase, z-score: 8.67; total luciferase, % of control: 254; call: active

What is on record for TYW3 (tRNA-yW synthesizing protein 3 homolog) #2?
total luciferase, z-score: -0.476; total luciferase, % of control: 72.4; call: inactive

What is on record for TYW3 (tRNA-yW synthesizing protein 3 homolog) #3?
total luciferase, z-score: -1.06; total luciferase, % of control: 60.7; call: inactive

How did the screen score DEGS2 (delta 4-desaturase, sphingolipid 2) #1?
total luciferase, z-score: -1.77; total luciferase, % of control: 46.8; call: inactive

What did the screen give for DEGS2 (delta 4-desaturase, sphingolipid 2) #2?
total luciferase, z-score: -0.46; total luciferase, % of control: 72.7; call: inactive

With DEGS2 (delta 4-desaturase, sphingolipid 2) #3, what does the deposit list?
total luciferase, z-score: -0.232; total luciferase, % of control: 77.3; call: inactive

How did the screen score MYO1D (myosin ID) #1?
total luciferase, z-score: 1.23; total luciferase, % of control: 106; call: inactive

Which result is listed for MYO1D (myosin ID) #2?
total luciferase, z-score: 1.14; total luciferase, % of control: 105; call: inactive

What is on record for MYO1D (myosin ID) #3?
total luciferase, z-score: 0.898; total luciferase, % of control: 99.7; call: inactive

4 of these entries, reformatted:
ADM (adrenomedullin) #3
- total luciferase, z-score: 0.851
- total luciferase, % of control: 98.8
- call: inactive

OPN1SW (opsin 1, short wave sensitive) #1
- total luciferase, z-score: 1.24
- total luciferase, % of control: 107
- call: inactive

OPN1SW (opsin 1, short wave sensitive) #2
- total luciferase, z-score: 6.53
- total luciferase, % of control: 212
- call: active

OPN1SW (opsin 1, short wave sensitive) #3
- total luciferase, z-score: -0.625
- total luciferase, % of control: 69.5
- call: inactive
